Assay results as given in paper PMC5436702.
Results are given in words; binding and its absence hold for the method and conditions named. In cells and extracts the contact can be indirect. Some results given as binding are weak or reduced against the parent protein; the word gives no strength. Sequences can lack the tags named with a protein.

By UniProt entry, the sequences of proteins in these tests, tags left out. Residues count along the entry.
UniProt Q9LJF3, residues 24-1164: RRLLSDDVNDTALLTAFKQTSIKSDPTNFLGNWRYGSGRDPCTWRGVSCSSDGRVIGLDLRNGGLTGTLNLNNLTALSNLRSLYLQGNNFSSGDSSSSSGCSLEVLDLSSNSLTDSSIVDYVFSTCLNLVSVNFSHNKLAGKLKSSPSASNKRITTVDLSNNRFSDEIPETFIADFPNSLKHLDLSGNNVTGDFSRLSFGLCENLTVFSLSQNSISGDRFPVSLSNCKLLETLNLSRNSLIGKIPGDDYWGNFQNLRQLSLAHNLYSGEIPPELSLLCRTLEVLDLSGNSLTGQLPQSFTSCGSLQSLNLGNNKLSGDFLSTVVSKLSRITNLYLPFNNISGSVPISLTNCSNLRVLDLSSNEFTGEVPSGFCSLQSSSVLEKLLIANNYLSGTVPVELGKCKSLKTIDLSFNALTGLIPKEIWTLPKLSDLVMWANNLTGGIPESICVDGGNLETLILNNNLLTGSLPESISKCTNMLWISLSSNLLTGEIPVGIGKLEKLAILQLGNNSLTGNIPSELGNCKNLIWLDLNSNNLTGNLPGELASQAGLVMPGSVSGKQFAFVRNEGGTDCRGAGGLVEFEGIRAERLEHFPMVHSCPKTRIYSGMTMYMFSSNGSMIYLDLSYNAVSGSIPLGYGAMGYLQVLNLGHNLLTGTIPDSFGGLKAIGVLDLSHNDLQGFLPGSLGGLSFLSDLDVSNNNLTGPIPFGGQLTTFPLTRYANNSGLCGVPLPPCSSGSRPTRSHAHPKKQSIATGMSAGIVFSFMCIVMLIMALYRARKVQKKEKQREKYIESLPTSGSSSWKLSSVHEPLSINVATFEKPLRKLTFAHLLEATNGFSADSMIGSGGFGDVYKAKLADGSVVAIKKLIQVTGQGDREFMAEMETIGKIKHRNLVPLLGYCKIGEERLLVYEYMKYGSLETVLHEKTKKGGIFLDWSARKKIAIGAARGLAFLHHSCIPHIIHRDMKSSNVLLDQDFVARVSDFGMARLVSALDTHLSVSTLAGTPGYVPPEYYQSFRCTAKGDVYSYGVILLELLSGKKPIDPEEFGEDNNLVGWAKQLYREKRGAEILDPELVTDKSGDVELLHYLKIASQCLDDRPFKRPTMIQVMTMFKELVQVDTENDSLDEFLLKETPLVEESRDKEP

Assays:
[1] = target: BRI1-LIKE3 (BRL3) tagged with cYFP (Arabidopsis thaliana) (UniProt Q9LJF3); experiment: split reporter; BiFC with nYFP- and cYFP-tagged proteins transiently expressed in N. benthamiana leaf cells; confocal imaging; mitochondrial marker Mt-rk as transformation control
[2] = target: BRL3 tagged with CFP (Arabidopsis thaliana) (UniProt Q9LJF3); experiment: FRET or BRET; acceptor photobleaching FRET (CFP donor, YFP acceptor) in leaf epidermis cells of N. benthamiana with transient expression; leaf discs treated with glucose (6% or 2%), 1 uM flg22 or 1 or 100 uM BL

Row | Binder | binding [1] | binding [2]
1 | Regulator of G-protein Signaling 1 (AtRGS1) tagged with nYFP (protein, UniProt Q8H1F2 1-459) MASGCALHGGCPSDYVAVAISVICFFVLLSRSVLPCLIHKAPRTNSSSFWIPVIQVISSFNLLFSIMMSVNLLRFRTKHWWRYCYLWAVWIEGPLGFGLLMSCRITQAFQLYFIFVKKRLPPVKSYIFLPLVLLPWIFGAAIIHATKPLNDKCHMGLQWTFPVAGLHALYVLALIAFTRAVRHVEFRFDELRDLWKGILVSATSIVIWVTAFVLNEIHEEISWLQVASRFVLLVTGGILVVVFFSISSNQPLLSQISLKKRQNFEFQRMGQALGIPDSGLLFRKEEFRPVDPNEPLDKLLLNKRFRHSFMEFADSCYAGETLHFFEEVYEHGKIPEDDSIRRIYMARHIMEKFIVAGAEMELNLSHKTRQEILTTQDLTHTDLFKNALNEVMQLIKMNLVRDYWSSIYFIKFKEEESCHEAMHKEGYSFSSPRLSSVQGSDDPFYQEHMSKSSRCSSPG | binds | 
2 | G-alpha subunit GPA1 tagged with nYFP (protein, UniProt P18064 1-383) MGLLCSRSRHHTEDTDENTQAAEIERRIEQEAKAEKHIRKLLLLGAGESGKSTIFKQIKLLFQTGFDEGELKSYVPVIHANVYQTIKLLHDGTKEFAQNETDSAKYMLSSESIAIGEKLSEIGGRLDYPRLTKDIAEGIETLWKDPAIQETCARGNELQVPDCTKYLMENLKRLSDINYIPTKEDVLYARVRTTGVVEIQFSPVGENKKSGEVYRLFDVGGQRNERRKWIHLFEGVTAVIFCAAISEYDQTLFEDEQKNRMMETKELFDWVLKQPCFEKTSFMLFLNKFDIFEKKVLDVPLNVCEWFRDYQPVSSGKQEIEHAYEFVKKKFEELYYQNTAPDRVDRVFKIYRTTALDQKLVKKTFKLVDETLRRRNLLEAGLL | binds | 
3 | AtRGS1 with a C-terminal YFP tag (protein, UniProt Q8H1F2 1-459) MASGCALHGGCPSDYVAVAISVICFFVLLSRSVLPCLIHKAPRTNSSSFWIPVIQVISSFNLLFSIMMSVNLLRFRTKHWWRYCYLWAVWIEGPLGFGLLMSCRITQAFQLYFIFVKKRLPPVKSYIFLPLVLLPWIFGAAIIHATKPLNDKCHMGLQWTFPVAGLHALYVLALIAFTRAVRHVEFRFDELRDLWKGILVSATSIVIWVTAFVLNEIHEEISWLQVASRFVLLVTGGILVVVFFSISSNQPLLSQISLKKRQNFEFQRMGQALGIPDSGLLFRKEEFRPVDPNEPLDKLLLNKRFRHSFMEFADSCYAGETLHFFEEVYEHGKIPEDDSIRRIYMARHIMEKFIVAGAEMELNLSHKTRQEILTTQDLTHTDLFKNALNEVMQLIKMNLVRDYWSSIYFIKFKEEESCHEAMHKEGYSFSSPRLSSVQGSDDPFYQEHMSKSSRCSSPG |  | binds
4 | AtHIR2 tagged with nYFP (negative control membrane protein) (protein, UniProt Q9CAR7 1-286) MGQALGCIQVDQSNVAIKETFGKFDEVLEPGCHCLPWCLGSQVAGHLSLRVQQLDVRCETKTKDNVFVTVVASIQYRALAESAQDAFYKLSNTRNQIQAYVFDVIRASVPKLDLDSTFEQKNDIAKTVETELEKAMSHYGYEIVQTLIVDIEPDVHVKRAMNEINAASRMREAASEKAEAEKILQIKRAEGEAESKYLSGMGIARQRQAIVDGLRNSVLAFSESVPGTSSKDVMDMVLVTQYFDTLKEIGASSKSNSVFIPHGPGAVRDIASQIRDGLLQGNSAAE | no binding | 
